Assay results published in PubChem BioAssay AID2685 (National Center for Advancing Translational Sciences (NCATS), 2010).
The other results are listed elsewhere or left out. The main result of the screen is listed elsewhere. These columns were measured beside it and carry no call. Compounds called inactive in the main read-out are mostly missing here. The note in brackets gives the kind of curve behind each potency; many fits are weak. Where a SMILES comes first, the peptide text is derived from it. The star is where a group is joined. OBn = c1ccc(CO*)cc1

Experiment: qHTS Assay for Lipid Storage Modulators in Drosophila S3 Cells;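 as to cell number change: cells counted by Cell Tracker Red CMTPX staining in the red channel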
Conditions: BODIPY lipid droplet fluorescence, 18-24 h; for cell number change: measured here: cell count max response, cells fed with added oleic acid
Summary of the method: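 Laser-scanning cytometry quantifies lipid droplet accumulation (500–530 nm total intensity; droplet/cell object ratio) in oleic acid-fed (400 uM added) Drosophila S3 cells treated with a concentration series. 20 uM Triacsin C defined 100% inhibition.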

[1] = measured here: cell number channel AC50, cells fed with added oleic acid
[2] = measured here: lipid fluorescence (Fed channel) AC50, cells fed with added oleic acid

| Structure (SMILES) | cell number change | AC50 [1] | AC50 [2] |
| --- | --- | --- | --- |
| Cc1cnc(NC(=O)Cc2c[nH]c3ccccc23)s1 | -34.1% | 0.58 µM [falling, full curve, poor fit] | 0.461 µM [falling, full curve] |
| CC1(C)Cc2c(sc(NC(=O)c3ccc(C(=O)c4ccccc4)cc3)c2C#N)C(C)(C)N1 | -20.5% | – | 29.1 µM [falling, single point] |
| NCC(=O)NCC(=O)OCc1ccccc1 (H-Gly-Gly-OBn) | 6.24% | 1.84 µM [falling, partial curve, poor fit] | 0.731 µM [falling, single point] |
| COc1ccc(-c2nnc(SCC(=O)NC3CCCC3)n2C)cc1 | 22.9% | 3.66 µM [rising, full curve, poor fit] | – |
| CN(C(=O)c1cc(COc2c(F)cccc2F)on1)C1CCOC1 (stereo unspecified) | -4.34% | – | – |
| Cc1nn(C)cc1C(=O)Nc1ccc2c(c1)OCCO2 | 8.57% | 2.06 µM [rising, partial curve] | – |
| COc1cccc(NC(=O)CNc2cc(S(=O)(=O)N3CCOCC3)ccc2N2CCCC2)c1 | 1.17% | – | – |
| C=CC(C)N1C(=O)S/C(=C\c2ccc(N3CCOCC3)cc2C)C1=O (stereo unspecified) | – | – | 7.31 µM [falling, partial curve, poor fit] |
| O=C(Cn1[nH]c(=O)c2ccccc2c1=O)OCC(=O)c1ccc(Br)cc1 | -4% | – | – |
| Cc1ccc(OCC(O)CN2CCc3ccccc3C2)c(C)c1 (stereo unspecified) | 18% | – | 20.6 µM [rising, single point] |
| CCOC(=O)c1cccc(NC(=O)COc2ccc([N+](=O)[O-])cc2)c1 | – | – | 29.1 µM [falling, single point] |
| Cc1ccsc1C(=O)Nc1nc2ccccc2[nH]1 | 21.4% | – | 0.82 µM [falling, full curve, poor fit] |
| O=C1CCN(CCc2ccccc2)CCN1CCOc1ccccc1 | 19.1% | 0.00461 µM [rising, full curve, poor fit] | 0.92 µM [rising, full curve] |
| COCCNC(=O)c1c(N)n(/N=C/c2cccs2)c2nc3ccccc3nc12 | 18.6% | – | 0.58 µM [rising, single point] |
| CC(Oc1ccc(F)cc1)C(=O)Nc1cc(S(=O)(=O)N2CCCCC2)ccc1N1CCOCC1 (stereo unspecified) | – | 4.61 µM [rising, partial curve, poor fit] | – |
| CC1CCc2cc(F)ccc2N1C(=O)CCC(=O)O (stereo unspecified) | -64.4% | 23.1 µM [falling, partial curve] | 3.66 µM [falling, full curve] |
| CCOc1ccc(-c2nc3n(c(=O)c2C#N)CCCS3)cc1 | -7.36% | – | 1.64 µM [rising, full curve, poor fit] |
| O=C(Nc1cccc2ncccc12)C(Cl)(Cl)Cl | – | 0.731 µM [rising, single point] | – |
| CCSc1nc2cc(C(=O)OC)ccc2c(=O)n1CC | -31.5% | 8.2 µM [falling, partial curve] | 13 µM [falling, partial curve] |
| CCOC(=O)N1CCN(C(=O)c2ccc3c(SCC(=O)O)c4c(nc3c2)CCC4)CC1 | 14.5% | – | – |
| CCOC(=O)C(Oc1ccc2c(-c3ccccc3)cc(=O)oc2c1)c1ccccc1 (stereo unspecified) | -0.611% | 3.26 µM [rising, partial curve] | 4.61 µM [rising, partial curve] |
| CC(C)NC(=O)N1CCC(c2nc3ccccc3s2)CC1 | – | – | 6.51 µM [rising, partial curve] |
| CCOc1ccc(C(=O)NC(C)CCc2ccccc2)cc1 (stereo unspecified) | -0.324% | – | 32.6 µM [falling, single point] |
| COc1ccc(C(=O)N/N=C/C2CC=CCC2)cc1OC (stereo unspecified) | -5.21% | – | – |
| CC(C)CN(C(=O)Cn1nnc(-c2ccc(F)cc2)n1)C1CCS(=O)(=O)C1 (stereo unspecified) | 34.9% | 14.6 µM [rising, single point] | 16.4 µM [rising, single point] |
| CCOC(=O)c1sc(=S)n(C)c1NC(=O)c1ccc(C(C)(C)C)cc1 | -39.5% | 18.4 µM [falling, partial curve, poor fit] | 10.3 µM [falling, partial curve] |
| Cc1ccc(/C([O-])=C(/C(=S)NCc2ccccc2)[n+]2cccc(CO)c2)cc1[N+](=O)[O-] | 31% | 29.1 µM [rising, single point] | – |
| O=[N+]([O-])c1ccc(N/N=C/c2ccccc2)c(F)c1 | -7.38% | – | 0.146 µM [falling, full curve, poor fit] |
| O=C(COC(=O)c1ccc([N+](=O)[O-])s1)Nc1ccc(F)cc1 | 9.17% | – | 0.164 µM [falling, full curve, poor fit] |

Part of the list above, as comma-separated lines.
Structure (SMILES),cell number change,AC50 [1],AC50 [2]
CCOc1ccc(-c2nc3n(c(=O)c2C#N)CCCS3)cc1,-7.36%,–,"1.64 µM [rising, full curve, poor fit]"
O=C(Nc1cccc2ncccc12)C(Cl)(Cl)Cl,–,"0.731 µM [rising, single point]",–
